The values that follow come from US20240368253A1.

Protein sequences, listed by entry. Tags and fused reporters are not part of them. Lines headed by an entry give the natural chain unless they say otherwise; changes in a name come on top.
UniProt P08648: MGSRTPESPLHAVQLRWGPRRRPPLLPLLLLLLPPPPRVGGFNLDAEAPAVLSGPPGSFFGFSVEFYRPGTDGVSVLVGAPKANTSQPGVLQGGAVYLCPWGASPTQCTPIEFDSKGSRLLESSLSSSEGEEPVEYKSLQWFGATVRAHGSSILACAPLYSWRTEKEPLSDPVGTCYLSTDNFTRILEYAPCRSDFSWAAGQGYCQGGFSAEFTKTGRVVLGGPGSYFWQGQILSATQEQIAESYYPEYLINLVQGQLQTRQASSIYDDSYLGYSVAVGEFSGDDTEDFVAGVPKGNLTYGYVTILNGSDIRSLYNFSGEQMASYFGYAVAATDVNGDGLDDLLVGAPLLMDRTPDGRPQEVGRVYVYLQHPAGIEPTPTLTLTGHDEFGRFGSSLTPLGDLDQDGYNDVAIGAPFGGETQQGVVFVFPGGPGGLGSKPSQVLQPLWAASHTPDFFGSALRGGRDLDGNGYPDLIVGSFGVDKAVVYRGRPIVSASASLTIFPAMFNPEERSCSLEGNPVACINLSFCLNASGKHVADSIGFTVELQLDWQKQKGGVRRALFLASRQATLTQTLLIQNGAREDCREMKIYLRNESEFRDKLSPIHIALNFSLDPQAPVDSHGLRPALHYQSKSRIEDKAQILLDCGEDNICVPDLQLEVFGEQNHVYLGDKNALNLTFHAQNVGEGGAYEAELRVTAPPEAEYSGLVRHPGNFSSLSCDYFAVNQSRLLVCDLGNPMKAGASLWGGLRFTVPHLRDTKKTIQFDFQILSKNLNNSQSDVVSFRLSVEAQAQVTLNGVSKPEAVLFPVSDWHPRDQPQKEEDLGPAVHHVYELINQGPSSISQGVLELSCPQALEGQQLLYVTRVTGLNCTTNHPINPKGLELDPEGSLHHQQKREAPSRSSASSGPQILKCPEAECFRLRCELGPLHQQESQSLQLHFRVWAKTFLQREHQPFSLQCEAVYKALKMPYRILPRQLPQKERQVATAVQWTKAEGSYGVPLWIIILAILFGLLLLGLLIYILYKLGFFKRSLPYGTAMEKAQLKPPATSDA
UniProt P04004: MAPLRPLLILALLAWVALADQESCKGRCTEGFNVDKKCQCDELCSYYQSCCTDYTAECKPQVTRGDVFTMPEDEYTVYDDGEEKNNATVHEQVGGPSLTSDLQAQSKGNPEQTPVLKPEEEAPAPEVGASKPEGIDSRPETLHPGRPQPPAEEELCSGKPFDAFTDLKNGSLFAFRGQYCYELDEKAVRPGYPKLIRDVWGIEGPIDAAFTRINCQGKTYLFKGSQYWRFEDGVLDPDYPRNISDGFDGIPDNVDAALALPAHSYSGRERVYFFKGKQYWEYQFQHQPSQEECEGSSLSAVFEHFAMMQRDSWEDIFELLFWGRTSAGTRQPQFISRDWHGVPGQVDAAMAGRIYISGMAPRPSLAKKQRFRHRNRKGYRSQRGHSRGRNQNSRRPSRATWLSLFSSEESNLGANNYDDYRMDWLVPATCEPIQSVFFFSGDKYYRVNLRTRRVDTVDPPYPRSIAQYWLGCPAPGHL

No constants are given. Whether binding was seen depends on the method and setting. Some binding calls cover weakened binding; strength is not graded here.

In assay [1] the target is alpha5Beta5 (α5β1) integrin heterodimer (UniProt P08648). Kind of assay: ELISA.
For assay [2] the target is unchanged. Kind of assay: ELISA, ED50 normalized to fibronectin.
The target is the same in assay [3]. As to the kind of experiment: ELISA (restated).
Assay [4] shares this target. Kind of assay: binding assay, method not given.

“VTN-N variant (VTN-CTS), VTN62-478 (from UniProt P04004 62-478) (ligand)”: the binding entry in assay [1] and in assay [2] was “binds” throughout.

Consider “VTN62-292 T63G, V67S, F68P (from UniProt P04004 62-292) (ligand)”, for which the binding result in assay [1], in assay [3] and in assay [2] was “binds” each time.

Take “Human Vitronectin Fragment 62-292 C-His (from UniProt P04004 62-292) (ligand)”: the binding entry in assay [1] and in assay [2] was “binds” throughout.

In the case of “VTN62-292 T63G, V67N, F68P (from UniProt P04004 62-292) (ligand)”, the binding entry in assay [1], in assay [3], in assay [2] and in assay [4] was “binds” throughout.
